Results reported in patent US7579477B2, “Thiazole-based nitric oxide donors having alkyl substituent(s) and uses thereof” (priority 2004, dated 2009).
For at least one compound, name, drawing or mass did not settle the structure.

Key:
[1] = system: mean arterial blood pressure of rats; experiment: Hypotensive effects: mean arterial pressure after iv bolus; type: in vivo, rat; details: anesthetized rats, phenylephrine, iv bolus doses
Procedure: Mean arterial pressure (MAP) was monitored and determined during bolus infusion of Pet-2, Pet-3, Pet-7, Pet-8, Pet-12 and Pet-13. Briefly, polyethylene catheters (PE50) were inserted into the carotid artery and into the jugular vein of anesthetized hypertensive Sprague-Dawley male rats (200-300 grams). A blood pressure recorder was placed within the carotid artery. Phenylephrine (0.1 mg) was then injected and the mean arterial blood pressure (MABP) was monitored continuously until a stable baseline was reached. The hypotensive effects of intravenous (iv) bolus doses (0.1 mg of each tested compound) administered intravenously at the jugular vein in minimal volume of vehicle (0.2 ml per dose) were evaluated. Five minutes were allowed between each dose, during which the maximal decrease in MAP was recorded and a dose-response graph comparing the hypotensive effect of the compounds was constructed.

[2] = system: cGMP in isolated aorta of rats pre-treated in vivo; experiment: Induction of in vivo nitrate tolerance (cGMP in aorta after 16 hour infusion); parameters: species or system rat
Procedure: For c-GMP levels and tolerance development, the rat's thoracic aorta was isolated after exposure to the tested compound in vivo, and measured as described above in the in vitro assays.
Male Sprague Dawley rats (220 to 250 grams) were housed under constant temperature and humidity conditions. Light was maintained at a 12/12 light dark cycle. Except for 12 hours before the experiment, when food fasting was initiated, all rats had free access to standard rat pellet diet and tap water. The animals were anesthetized by intraperitoneal injection of ketamine and xylazine combination (50 and 10 milligram per kilogram, respectively). […] The catheters were filled with normal saline solution containing 1000 IU/ml of heparin and plugged with a metal pin. Catheters were externalized to the back of the neck region and secured by a polyester felt disk.
After implantation, the rats were individually housed until they regained their preoperative weight and appeared healthy (3 to 4 days post-operation). At this time point (day 0), an osmotic mini-pump (Alza Corp., Palo Alto, Calif.) delivering constant volume (10 μl/hour) of vehicle or drug was connected to one of the intravenous catheters.
For inducing tolerance to the tested NO-donor according to the present invention, the animals received 200 μg/hour of the tested compound for 16 hours (short-term-induced tolerance). […]

isolated rat aorta = experiment: In vitro vasorelaxation of rat aortic rings contracted with epinephrine; type: cell-based; details: isolated rat aorta pre-treated in vitro with 1 μM epinephrine; figure legends
Source text: Male Sprague Dawley rats were anaesthetized using intraperitoneal injection of ketamine and xylazine (50 and 10 milligram per kilogram, respectively) and the thoracic aorta, the large upper portion of the descending aorta, starting at the caudal border of the chest bone, was removed thereafter, while carefully removing the paraadventetial tissue surrounding the vessel. Aortae were cut into rings of 4-5 millimeters and mounted onto the tissue path. The path buffer (Krebs-bicrbonate) was constantly gassed with carbogen and maintained at 37° C. The rings were preloaded under 2 g tension and equilibrated for 90 minutes, while refreshing the buffer every 15 minutes. After stabilization, the rings were contracted with epinephrine (1 μM). Cumulative Concentration-Response Curves (CCRC) were measured for the vasorelaxing effect induced by adding various concentrations, ranging from 10^−10 M to 10^−5 M of Pet-2, Pet-3, Pet-7, Pet-8, Pet-12, Pet-24, Pet-43, Pet-59, Pet-147, Pet-152 and Pet-154, and glyceryltrinitrate (GTN), according to the procedure described in Feelich et al., Molecular Pharmacology, 56:243-253 (1999). The vehicle, which was used for this experiment was water:ethanol:propyleneglycol at proportional ratio of 1:1:1.

In the case of `CCc1nc(C)c(CCO[N+](=O)[O-])s1` [Pet-2, 2-Ethyl-4-methyl-5-(2-nitrooxy-ethyl)-thiazole], the “hypotensive effect on MAP following successive administrations” value [1] is reported as “consistent and reproducible”, the “level of cGMP following a repeated treatment in vivo” value ([2]; aorta of rats infused in vivo, FIG. 24) is reported as “remained substantially unchanged” and the “tolerance induction in vivo” value ([2]; cGMP accumulation in aorta of rats pre-treated in vivo, FIGS. 24, 26) is reported as “absence of tolerance induction”. The “vasorelaxation effect as compared with glyceryltrinitrate” value (isolated rat aorta) was “superior”.
